Source: the supplement of paper PMC7661543
± gives the standard deviation of the averaged measurements. The effect of the compound repeats well; differences between the knockouts mostly do not.

Tested on: SKBR3
Assay: relative cell number vs DMSO control (72 h) (% of DMSO); higher = less growth inhibition (more cells)
Procedure: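 QMAP-Seq: a pool of 5 breast cancer cell lines (ZR-75-1, SKBR3, HCC-38, MDA-MB-231, BT-20), each carrying 12 doxycycline-inducible Cas9 sgRNA perturbations (11 knockouts plus non-targeting sgNT), was treated with compounds for 72 h at four 10-fold doses (10 nM-10 uM or 1 nM-1 uM range). Barcodes were amplified and sequenced, and cell number was interpolated from 293T spike-in standard curves. The result is expressed as % of the median of DMSO wells. Two biological replicates.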

CC(C)(C)c1cnc(CSc2cnc(NC(=O)C3CCNCC3)s2)o1 [SNS032]
Conditions | relative cell number
sgRNA knockout: sgATF3, 10 nM | 76.8 ± 22
sgRNA knockout: sgATF3, 100 nM | 88.9 ± 23
sgRNA knockout: sgATF3, 1000 nM | 7.3 ± 4.4
sgRNA knockout: sgATF3, 10000 nM | 16.5 ± 2.9
sgRNA knockout: sgATF4, 10 nM | 109 ± 32
sgRNA knockout: sgATF4, 100 nM | 83.7 ± 5.1
sgRNA knockout: sgATF4, 1000 nM | 10.2 ± 0.34
sgRNA knockout: sgATF4, 10000 nM | 15.6 ± 5.3
sgRNA knockout: sgATF6, 10 nM | 97.2 ± 16
sgRNA knockout: sgATF6, 100 nM | 69.9 ± 5.9
sgRNA knockout: sgATF6, 1000 nM | 8.27 ± 0.34
sgRNA knockout: sgATF6, 10000 nM | 14.4 ± 3.9
sgRNA knockout: sgATG7, 10 nM | 114 ± 1.7
sgRNA knockout: sgATG7, 100 nM | 86.4 ± 2.8
sgRNA knockout: sgATG7, 1000 nM | 5.87 ± 0.21
sgRNA knockout: sgATG7, 10000 nM | 16.6 ± 1.6
sgRNA knockout: sgERN1, 10 nM | 106 ± 17
sgRNA knockout: sgERN1, 100 nM | 95.7 ± 14
sgRNA knockout: sgERN1, 1000 nM | 12.3 ± 2.8
sgRNA knockout: sgERN1, 10000 nM | 14.9 ± 7.2
sgRNA knockout: sgHSF1, 10 nM | 79.4 ± 7.2
sgRNA knockout: sgHSF1, 100 nM | 83.5 ± 5.2
sgRNA knockout: sgHSF1, 1000 nM | 8.63 ± 1.5
sgRNA knockout: sgHSF1, 10000 nM | 18.8 ± 0.45
sgRNA knockout: sgHSF2, 10 nM | 100 ± 5.8
sgRNA knockout: sgHSF2, 100 nM | 66.3 ± 10
sgRNA knockout: sgHSF2, 1000 nM | 12.3 ± 1.1
sgRNA knockout: sgHSF2, 10000 nM | 14.3 ± 2.3
sgRNA knockout: sgKEAP1, 10 nM | 92 ± 35
sgRNA knockout: sgKEAP1, 100 nM | 71.8 ± 4.5
sgRNA knockout: sgKEAP1, 1000 nM | 5.56 ± 2.1
sgRNA knockout: sgKEAP1, 10000 nM | 13.6 ± 2.1
sgRNA knockout: sgNFE2L2, 10 nM | 117 ± 9.6
sgRNA knockout: sgNFE2L2, 100 nM | 82.5 ± 3.1
sgRNA knockout: sgNFE2L2, 1000 nM | 9.68 ± 3.8
sgRNA knockout: sgNFE2L2, 10000 nM | 15.8 ± 8.7
sgRNA knockout: sgSLC35F2, 10 nM | 112 ± 30
sgRNA knockout: sgSLC35F2, 100 nM | 84.8 ± 8.6
sgRNA knockout: sgSLC35F2, 1000 nM | 6.82 ± 1.6
sgRNA knockout: sgSLC35F2, 10000 nM | 10.4 ± 2.7
sgRNA knockout: sgXBP1, 10 nM | 95.3 ± 23
sgRNA knockout: sgXBP1, 100 nM | 98.8 ± 19
sgRNA knockout: sgXBP1, 1000 nM | 6.48 ± 2.9
sgRNA knockout: sgXBP1, 10000 nM | 13.9 ± 11

COc1cc2nccc(Oc3ccc(NC(=O)Nc4cc(C)on4)c(Cl)c3)c2cc1OC [Tivozanib]
Conditions | relative cell number
sgRNA knockout: sgATF3, 10 nM | 97.3 ± 3.1
sgRNA knockout: sgATF3, 100 nM | 97.1 ± 12
sgRNA knockout: sgATF3, 1000 nM | 107 ± 31
sgRNA knockout: sgATF3, 10000 nM | 79.5 ± 5.8
sgRNA knockout: sgATF4, 10 nM | 89.24 ± 0.38
sgRNA knockout: sgATF4, 100 nM | 70.5 ± 6.9
sgRNA knockout: sgATF4, 1000 nM | 91.9 ± 6
sgRNA knockout: sgATF4, 10000 nM | 73.1 ± 1.9
sgRNA knockout: sgATF6, 10 nM | 97.8 ± 6.4
sgRNA knockout: sgATF6, 100 nM | 85.3 ± 10
sgRNA knockout: sgATF6, 1000 nM | 94 ± 5
sgRNA knockout: sgATF6, 10000 nM | 72.4 ± 7.6
sgRNA knockout: sgATG7, 10 nM | 114 ± 12
sgRNA knockout: sgATG7, 100 nM | 80.45 ± 0.24
sgRNA knockout: sgATG7, 1000 nM | 88.7 ± 9.2
sgRNA knockout: sgATG7, 10000 nM | 66.6 ± 5.2
sgRNA knockout: sgERN1, 10 nM | 93.2 ± 5.9
sgRNA knockout: sgERN1, 100 nM | 91.016 ± 0.055
sgRNA knockout: sgERN1, 1000 nM | 96.6 ± 17
sgRNA knockout: sgERN1, 10000 nM | 72.3 ± 1.7
sgRNA knockout: sgHSF1, 10 nM | 98.3 ± 2.2
sgRNA knockout: sgHSF1, 100 nM | 72.9 ± 13
sgRNA knockout: sgHSF1, 1000 nM | 97.4 ± 8.1
sgRNA knockout: sgHSF1, 10000 nM | 74.4 ± 9.2
sgRNA knockout: sgHSF2, 10 nM | 106 ± 17
sgRNA knockout: sgHSF2, 100 nM | 96.2 ± 26
sgRNA knockout: sgHSF2, 1000 nM | 94.4 ± 17
sgRNA knockout: sgHSF2, 10000 nM | 74.4 ± 5.1
sgRNA knockout: sgKEAP1, 10 nM | 101 ± 18
sgRNA knockout: sgKEAP1, 100 nM | 85.2 ± 8.6
sgRNA knockout: sgKEAP1, 1000 nM | 105 ± 18
sgRNA knockout: sgKEAP1, 10000 nM | 65.9 ± 1.7
sgRNA knockout: sgNFE2L2, 10 nM | 82.2 ± 16
sgRNA knockout: sgNFE2L2, 100 nM | 85.7 ± 19
sgRNA knockout: sgNFE2L2, 1000 nM | 91.3 ± 8.2
sgRNA knockout: sgNFE2L2, 10000 nM | 79.6 ± 10
sgRNA knockout: sgSLC35F2, 10 nM | 80.2 ± 14
sgRNA knockout: sgSLC35F2, 100 nM | 103 ± 2.7
sgRNA knockout: sgSLC35F2, 1000 nM | 110 ± 38
sgRNA knockout: sgSLC35F2, 10000 nM | 86.6 ± 3
sgRNA knockout: sgXBP1, 10 nM | 90.7 ± 11
sgRNA knockout: sgXBP1, 100 nM | 98.83 ± 0.59
sgRNA knockout: sgXBP1, 1000 nM | 82.9 ± 3
sgRNA knockout: sgXBP1, 10000 nM | 73 ± 15

CC(=O)Nc1cccc(-n2c(=O)n(C3CC3)c(=O)c3c(Nc4ccc(I)cc4F)n(C)c(=O)c(C)c32)c1 [Trametinib]
Conditions | relative cell number
sgRNA knockout: sgATF3, 10 nM | 104 ± 22
sgRNA knockout: sgATF3, 100 nM | 89.2 ± 17
sgRNA knockout: sgATF3, 1000 nM | 101 ± 3.9
sgRNA knockout: sgATF3, 10000 nM | 87 ± 8.3
sgRNA knockout: sgATF4, 10 nM | 95.5 ± 15
sgRNA knockout: sgATF4, 100 nM | 91.6 ± 9.4
sgRNA knockout: sgATF4, 1000 nM | 87.3 ± 9.5
sgRNA knockout: sgATF4, 10000 nM | 86.1 ± 4.8
sgRNA knockout: sgATF6, 10 nM | 81.3 ± 18
sgRNA knockout: sgATF6, 100 nM | 73.6 ± 8.6
sgRNA knockout: sgATF6, 1000 nM | 89.6 ± 8.2
sgRNA knockout: sgATF6, 10000 nM | 91.6 ± 5.6
sgRNA knockout: sgATG7, 10 nM | 94.8 ± 10
sgRNA knockout: sgATG7, 100 nM | 79.7 ± 4.1
sgRNA knockout: sgATG7, 1000 nM | 82.2 ± 8.2
sgRNA knockout: sgATG7, 10000 nM | 83.1 ± 10
sgRNA knockout: sgERN1, 10 nM | 90.9 ± 10
sgRNA knockout: sgERN1, 100 nM | 67 ± 21
sgRNA knockout: sgERN1, 1000 nM | 88.7 ± 27
sgRNA knockout: sgERN1, 10000 nM | 83.3 ± 3.1
sgRNA knockout: sgHSF1, 10 nM | 106 ± 33
sgRNA knockout: sgHSF1, 100 nM | 78.1 ± 5.1
sgRNA knockout: sgHSF1, 1000 nM | 72.9 ± 6.1
sgRNA knockout: sgHSF1, 10000 nM | 64.1 ± 1.4
sgRNA knockout: sgHSF2, 10 nM | 90.2 ± 17
sgRNA knockout: sgHSF2, 100 nM | 75.3 ± 9
sgRNA knockout: sgHSF2, 1000 nM | 74.9 ± 10
sgRNA knockout: sgHSF2, 10000 nM | 97.7 ± 15
sgRNA knockout: sgKEAP1, 10 nM | 106 ± 9.9
sgRNA knockout: sgKEAP1, 100 nM | 87.1 ± 26
sgRNA knockout: sgKEAP1, 1000 nM | 86.67 ± 0.82
sgRNA knockout: sgKEAP1, 10000 nM | 78.1 ± 4.5
sgRNA knockout: sgNFE2L2, 10 nM | 124 ± 19
sgRNA knockout: sgNFE2L2, 100 nM | 89.3 ± 13
sgRNA knockout: sgNFE2L2, 1000 nM | 91.2 ± 22
sgRNA knockout: sgNFE2L2, 10000 nM | 68.5 ± 4.2
sgRNA knockout: sgSLC35F2, 10 nM | 90 ± 35
sgRNA knockout: sgSLC35F2, 100 nM | 63.4 ± 8.3
sgRNA knockout: sgSLC35F2, 1000 nM | 91.6 ± 14
sgRNA knockout: sgSLC35F2, 10000 nM | 77.5 ± 15
sgRNA knockout: sgXBP1, 10 nM | 129 ± 27
sgRNA knockout: sgXBP1, 100 nM | 90.9 ± 21
sgRNA knockout: sgXBP1, 1000 nM | 96.6 ± 7.8
sgRNA knockout: sgXBP1, 10000 nM | 65 ± 13
